The values below come from the supplement of paper PMC10849652.

The chains behind the UniProt entries cited, without tags or fusion partners. Where a name states a change or a piece, a line headed by the entry shows the natural chain unless it says otherwise.
UniProt Q8NFH3: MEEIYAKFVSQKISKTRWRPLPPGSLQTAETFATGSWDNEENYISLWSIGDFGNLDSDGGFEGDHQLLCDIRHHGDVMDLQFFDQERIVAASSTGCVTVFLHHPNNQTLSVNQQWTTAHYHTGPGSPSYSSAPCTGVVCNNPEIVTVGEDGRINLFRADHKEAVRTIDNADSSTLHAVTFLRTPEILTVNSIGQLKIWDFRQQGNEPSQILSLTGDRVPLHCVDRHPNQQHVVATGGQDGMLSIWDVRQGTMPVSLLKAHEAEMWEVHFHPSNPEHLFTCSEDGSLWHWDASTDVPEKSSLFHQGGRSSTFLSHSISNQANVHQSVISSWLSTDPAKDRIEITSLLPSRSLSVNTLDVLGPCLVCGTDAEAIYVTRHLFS
UniProt Q02818: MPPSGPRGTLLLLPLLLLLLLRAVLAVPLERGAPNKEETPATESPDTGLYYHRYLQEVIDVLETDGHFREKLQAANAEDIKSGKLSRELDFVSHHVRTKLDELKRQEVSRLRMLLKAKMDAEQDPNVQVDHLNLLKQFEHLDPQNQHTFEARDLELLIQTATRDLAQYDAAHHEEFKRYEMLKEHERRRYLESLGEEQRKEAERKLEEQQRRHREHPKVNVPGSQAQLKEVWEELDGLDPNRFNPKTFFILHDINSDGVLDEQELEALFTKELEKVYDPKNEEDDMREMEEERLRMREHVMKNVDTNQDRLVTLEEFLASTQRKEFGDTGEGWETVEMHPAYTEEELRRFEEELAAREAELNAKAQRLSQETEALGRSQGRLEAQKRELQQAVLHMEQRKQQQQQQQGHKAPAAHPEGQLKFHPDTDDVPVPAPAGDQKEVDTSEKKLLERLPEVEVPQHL
UniProt P61970, whole entry, looked up: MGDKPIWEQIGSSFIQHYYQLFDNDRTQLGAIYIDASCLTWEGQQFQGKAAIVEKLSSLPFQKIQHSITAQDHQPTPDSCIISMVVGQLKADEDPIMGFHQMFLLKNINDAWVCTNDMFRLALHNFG
UniProt P13674: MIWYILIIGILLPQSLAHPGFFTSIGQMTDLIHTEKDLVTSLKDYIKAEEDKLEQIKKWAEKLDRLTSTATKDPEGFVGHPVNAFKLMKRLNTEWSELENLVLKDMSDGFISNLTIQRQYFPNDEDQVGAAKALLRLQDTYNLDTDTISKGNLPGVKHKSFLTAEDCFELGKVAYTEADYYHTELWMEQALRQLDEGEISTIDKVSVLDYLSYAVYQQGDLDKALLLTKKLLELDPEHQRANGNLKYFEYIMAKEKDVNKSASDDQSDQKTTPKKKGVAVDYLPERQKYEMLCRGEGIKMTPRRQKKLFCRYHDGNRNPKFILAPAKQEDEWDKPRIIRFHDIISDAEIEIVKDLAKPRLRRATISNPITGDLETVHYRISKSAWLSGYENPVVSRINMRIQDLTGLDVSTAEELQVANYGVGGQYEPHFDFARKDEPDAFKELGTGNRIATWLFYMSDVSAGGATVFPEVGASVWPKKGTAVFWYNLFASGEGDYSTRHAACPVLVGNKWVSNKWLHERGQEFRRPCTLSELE
UniProt Q9NPF4: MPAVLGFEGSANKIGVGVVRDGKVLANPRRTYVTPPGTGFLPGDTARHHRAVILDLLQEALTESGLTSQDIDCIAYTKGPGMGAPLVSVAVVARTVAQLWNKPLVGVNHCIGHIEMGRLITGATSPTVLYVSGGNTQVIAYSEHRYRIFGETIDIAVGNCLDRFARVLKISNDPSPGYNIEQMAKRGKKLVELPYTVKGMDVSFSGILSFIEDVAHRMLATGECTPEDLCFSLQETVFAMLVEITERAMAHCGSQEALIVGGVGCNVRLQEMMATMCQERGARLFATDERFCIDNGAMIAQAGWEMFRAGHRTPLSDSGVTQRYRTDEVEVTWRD
UniProt Q96SU4: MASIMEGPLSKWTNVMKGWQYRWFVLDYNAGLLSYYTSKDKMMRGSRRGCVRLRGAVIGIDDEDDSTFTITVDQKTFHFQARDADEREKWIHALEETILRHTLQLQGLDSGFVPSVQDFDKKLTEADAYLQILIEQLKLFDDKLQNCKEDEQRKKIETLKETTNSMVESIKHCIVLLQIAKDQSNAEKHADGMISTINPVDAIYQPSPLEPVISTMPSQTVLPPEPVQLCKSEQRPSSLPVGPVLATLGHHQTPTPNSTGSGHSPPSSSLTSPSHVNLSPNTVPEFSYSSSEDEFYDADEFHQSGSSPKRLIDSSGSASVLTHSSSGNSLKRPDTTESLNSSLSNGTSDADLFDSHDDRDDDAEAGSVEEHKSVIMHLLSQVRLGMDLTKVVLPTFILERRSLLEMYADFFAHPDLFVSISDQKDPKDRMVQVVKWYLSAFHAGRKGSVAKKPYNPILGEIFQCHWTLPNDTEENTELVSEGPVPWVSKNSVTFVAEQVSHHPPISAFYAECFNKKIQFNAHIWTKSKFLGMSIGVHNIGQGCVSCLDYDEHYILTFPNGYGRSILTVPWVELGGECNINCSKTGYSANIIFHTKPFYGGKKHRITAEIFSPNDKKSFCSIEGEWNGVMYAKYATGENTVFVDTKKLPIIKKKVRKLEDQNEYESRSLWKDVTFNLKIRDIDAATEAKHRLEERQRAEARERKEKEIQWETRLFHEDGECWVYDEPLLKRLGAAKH
UniProt Q969T7: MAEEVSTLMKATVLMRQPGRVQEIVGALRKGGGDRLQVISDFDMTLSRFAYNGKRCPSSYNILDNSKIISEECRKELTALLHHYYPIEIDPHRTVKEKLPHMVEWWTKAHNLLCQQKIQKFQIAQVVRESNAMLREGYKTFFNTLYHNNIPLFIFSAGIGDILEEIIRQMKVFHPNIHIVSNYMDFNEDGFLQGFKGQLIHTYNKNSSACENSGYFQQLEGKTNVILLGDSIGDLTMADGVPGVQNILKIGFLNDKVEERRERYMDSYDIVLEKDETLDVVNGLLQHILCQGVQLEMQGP
UniProt Q9BVL2: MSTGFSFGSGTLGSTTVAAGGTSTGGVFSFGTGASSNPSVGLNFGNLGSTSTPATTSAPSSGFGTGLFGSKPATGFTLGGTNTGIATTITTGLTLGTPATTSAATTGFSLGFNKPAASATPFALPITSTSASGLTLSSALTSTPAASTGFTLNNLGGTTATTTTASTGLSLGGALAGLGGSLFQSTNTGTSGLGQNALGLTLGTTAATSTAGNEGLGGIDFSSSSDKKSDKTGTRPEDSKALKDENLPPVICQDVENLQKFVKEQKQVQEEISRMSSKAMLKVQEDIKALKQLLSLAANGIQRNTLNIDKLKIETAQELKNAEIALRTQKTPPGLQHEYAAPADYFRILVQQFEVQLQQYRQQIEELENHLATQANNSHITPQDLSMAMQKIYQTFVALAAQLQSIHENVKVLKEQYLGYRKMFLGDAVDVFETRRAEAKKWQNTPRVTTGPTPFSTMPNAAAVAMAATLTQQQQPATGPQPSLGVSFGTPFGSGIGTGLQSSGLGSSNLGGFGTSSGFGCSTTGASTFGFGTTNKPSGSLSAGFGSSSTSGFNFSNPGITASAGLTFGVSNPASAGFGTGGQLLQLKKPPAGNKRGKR
UniProt P49902: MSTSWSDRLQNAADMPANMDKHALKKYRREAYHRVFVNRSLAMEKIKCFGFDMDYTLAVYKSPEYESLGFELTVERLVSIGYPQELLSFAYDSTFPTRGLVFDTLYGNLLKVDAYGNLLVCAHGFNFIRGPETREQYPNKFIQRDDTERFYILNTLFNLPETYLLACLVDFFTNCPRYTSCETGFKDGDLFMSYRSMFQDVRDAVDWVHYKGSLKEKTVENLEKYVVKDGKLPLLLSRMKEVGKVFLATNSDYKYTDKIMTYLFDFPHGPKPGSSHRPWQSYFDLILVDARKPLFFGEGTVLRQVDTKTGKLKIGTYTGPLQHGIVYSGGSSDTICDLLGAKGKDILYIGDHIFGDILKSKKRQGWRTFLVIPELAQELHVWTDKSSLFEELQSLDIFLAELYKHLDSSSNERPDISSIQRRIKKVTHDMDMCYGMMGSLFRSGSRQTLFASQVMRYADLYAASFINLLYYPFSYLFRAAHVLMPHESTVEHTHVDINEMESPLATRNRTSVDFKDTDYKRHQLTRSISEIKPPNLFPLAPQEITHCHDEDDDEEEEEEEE
UniProt Q8TCD5: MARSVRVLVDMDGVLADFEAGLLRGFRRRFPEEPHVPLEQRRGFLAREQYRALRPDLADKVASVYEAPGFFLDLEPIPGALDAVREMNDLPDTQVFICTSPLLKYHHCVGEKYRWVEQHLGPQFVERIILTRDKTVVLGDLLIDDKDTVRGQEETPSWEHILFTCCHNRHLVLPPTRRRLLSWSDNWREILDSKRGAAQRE
UniProt O43482, whole entry, looked up: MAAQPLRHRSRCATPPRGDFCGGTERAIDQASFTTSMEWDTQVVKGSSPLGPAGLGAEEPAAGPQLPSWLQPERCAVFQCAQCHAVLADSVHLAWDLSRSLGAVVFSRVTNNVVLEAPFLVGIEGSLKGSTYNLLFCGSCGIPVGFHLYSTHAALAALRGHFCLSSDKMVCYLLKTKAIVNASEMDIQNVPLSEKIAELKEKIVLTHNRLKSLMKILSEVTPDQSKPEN
UniProt Q8N543: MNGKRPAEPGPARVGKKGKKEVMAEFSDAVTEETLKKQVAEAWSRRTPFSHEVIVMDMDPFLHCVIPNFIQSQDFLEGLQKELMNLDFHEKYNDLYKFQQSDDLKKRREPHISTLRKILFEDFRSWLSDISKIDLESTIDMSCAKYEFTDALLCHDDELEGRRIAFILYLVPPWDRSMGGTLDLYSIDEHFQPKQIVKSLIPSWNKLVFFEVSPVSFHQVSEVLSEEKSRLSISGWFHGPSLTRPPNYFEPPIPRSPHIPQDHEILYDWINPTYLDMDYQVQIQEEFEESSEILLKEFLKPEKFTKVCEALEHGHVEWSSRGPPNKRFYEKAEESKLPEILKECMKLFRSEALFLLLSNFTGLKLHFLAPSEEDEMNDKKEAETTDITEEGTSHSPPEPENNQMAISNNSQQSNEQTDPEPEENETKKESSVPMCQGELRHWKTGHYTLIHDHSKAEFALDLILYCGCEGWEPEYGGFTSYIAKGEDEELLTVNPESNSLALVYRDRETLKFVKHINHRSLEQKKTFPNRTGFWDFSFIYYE
UniProt Q9H0G5: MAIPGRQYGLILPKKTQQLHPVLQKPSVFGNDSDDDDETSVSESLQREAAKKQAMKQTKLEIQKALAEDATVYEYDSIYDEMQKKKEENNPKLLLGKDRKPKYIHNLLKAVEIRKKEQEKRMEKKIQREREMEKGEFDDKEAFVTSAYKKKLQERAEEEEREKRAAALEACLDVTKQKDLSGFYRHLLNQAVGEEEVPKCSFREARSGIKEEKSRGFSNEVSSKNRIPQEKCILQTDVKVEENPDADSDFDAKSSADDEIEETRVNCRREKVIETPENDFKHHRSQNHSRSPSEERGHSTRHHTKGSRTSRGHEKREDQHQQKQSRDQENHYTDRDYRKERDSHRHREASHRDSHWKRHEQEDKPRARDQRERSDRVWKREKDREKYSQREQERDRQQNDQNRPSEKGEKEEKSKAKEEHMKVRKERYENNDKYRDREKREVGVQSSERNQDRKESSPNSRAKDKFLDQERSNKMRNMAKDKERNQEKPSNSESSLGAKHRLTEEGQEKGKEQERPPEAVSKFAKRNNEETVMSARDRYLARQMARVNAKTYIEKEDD
UniProt P49757: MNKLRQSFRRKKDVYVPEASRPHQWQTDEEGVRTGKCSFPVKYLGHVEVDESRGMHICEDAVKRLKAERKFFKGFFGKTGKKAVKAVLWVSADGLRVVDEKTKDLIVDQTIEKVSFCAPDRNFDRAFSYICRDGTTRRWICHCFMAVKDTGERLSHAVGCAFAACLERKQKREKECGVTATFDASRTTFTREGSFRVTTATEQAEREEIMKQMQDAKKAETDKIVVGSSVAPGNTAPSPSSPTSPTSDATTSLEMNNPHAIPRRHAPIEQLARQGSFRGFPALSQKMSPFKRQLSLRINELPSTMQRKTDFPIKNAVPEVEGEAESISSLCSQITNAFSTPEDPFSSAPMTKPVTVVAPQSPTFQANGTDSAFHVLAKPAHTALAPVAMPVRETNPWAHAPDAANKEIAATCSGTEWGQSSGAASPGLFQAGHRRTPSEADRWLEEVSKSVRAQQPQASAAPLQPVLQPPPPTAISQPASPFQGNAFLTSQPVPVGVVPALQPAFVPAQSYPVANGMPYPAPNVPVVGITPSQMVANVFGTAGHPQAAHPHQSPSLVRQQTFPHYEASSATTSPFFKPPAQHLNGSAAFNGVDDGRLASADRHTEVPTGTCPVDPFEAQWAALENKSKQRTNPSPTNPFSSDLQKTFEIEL
UniProt P00480: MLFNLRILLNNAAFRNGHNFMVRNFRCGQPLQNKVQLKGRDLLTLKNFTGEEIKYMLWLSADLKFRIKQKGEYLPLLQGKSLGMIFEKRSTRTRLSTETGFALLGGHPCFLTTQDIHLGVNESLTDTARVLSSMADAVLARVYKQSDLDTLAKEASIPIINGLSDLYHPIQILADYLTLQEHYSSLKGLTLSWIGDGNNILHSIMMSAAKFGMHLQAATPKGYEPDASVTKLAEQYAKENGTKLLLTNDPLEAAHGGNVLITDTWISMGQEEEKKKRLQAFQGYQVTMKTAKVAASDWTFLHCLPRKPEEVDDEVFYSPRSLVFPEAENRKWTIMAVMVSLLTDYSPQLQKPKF

The other results are listed elsewhere or left out.

Compound in this assay: c1ccc([C@@H]2C[C@H]2NC2CCNCC2)cc1
Briefly: log2 fold change, soluble protein after heating vs DMSO (PISA); higher = thermal stabilisation; K562 cells, 10 uM, 30 min; active = over 0.2 and 3.5 SD of the protein, either way, in both replicates (recomputed). The method, boiled down:
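Thermal stability values are relative to control samples and come from duplicates. They are expressed as log2 fold changes. For measurement, K562 cells (2×10^6 cells/mL) received 10 μM compound for 30 min, and aliquots were heated for 3 min over 48°C-58°C, pooled, and extracted at 4°C in PBS with 0.5% NP-40. Soluble protein, the supernatant after 21,000xg for 90 min, was quantified by TMTpro 16plex LC-MS/MS with equalised channel sums.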
In the case of NUP43 (UniProt Q8NFH3), the log2 fold change was inactive: -0.003.
The figure for NUP188 (UniProt Q5SRE5) is inactive: -0.018; for NUP205 (UniProt Q92621) it is inactive: 0.008.
With NUCB1 (UniProt Q02818), the log2 fold change is inactive: 0.057.
As for OXCT1 (UniProt P55809), the log2 fold change was inactive: -0.031.
For the target NUTF2 (UniProt P61970), the log2 fold change was inactive: 0.016.
As for NT5DC2 isoform 2 (UniProt Q9H857), the log2 fold change is inactive: 0.017.
The result for PAAF1 (UniProt Q9BRP4) reads inactive: 0.008; that for NUCB2 (UniProt P80303), inactive: 0.026; that for NUBPL (UniProt Q8TB37), inactive: 0.01.
As to OTUD5 isoform 5 (UniProt Q96G74), the log2 fold change is inactive: -0.001.
Turning to NUSAP1 (UniProt Q9BXS6), the log2 fold change is inactive: 0.025.
NUDT5 (UniProt Q9UKK9): the log2 fold change was inactive: 0.043.
The result for P4HA1 isoform 2 (UniProt P13674) reads inactive: 0.009.
The result for OSGEP (UniProt Q9NPF4) reads inactive: 0.003.
Take OCIAD1 (UniProt Q9NX40): the log2 fold change was inactive: -0.024.
The result for OSBPL9 (UniProt Q96SU4) reads inactive: 0.007.
The figure for NT5C3B (UniProt Q969T7) is inactive: 0.016; for NUP58 (UniProt Q9BVL2) it is inactive: 0.025; for NSUN4 (UniProt Q96CB9) it is inactive: -0.041.
The figure for NT5C2 (UniProt P49902) is inactive: 0.007; for NUP88 (UniProt Q99567) it is inactive: -0.03.
Consider NUDT2 (UniProt P50583), for which the log2 fold change was inactive: -0.021.
Turning to NT5C (UniProt Q8TCD5), the log2 fold change was inactive: 0.017.
The figure for OIP5 (UniProt O43482) is inactive: -0.004; for OGFOD1 (UniProt Q8N543) it is inactive: -0.007.
On to NUP133 (UniProt Q8WUM0), for which the log2 fold change was inactive: -0.081.
In the case of NSRP1 (UniProt Q9H0G5), the log2 fold change was inactive: 0.073.
For NUP54 (UniProt Q7Z3B4), the log2 fold change was inactive: -0.028.
The figure for NUMB (UniProt P49757) is inactive: -0.009; for OTC (UniProt P00480) it is inactive: 0.069; for NTMT1 (UniProt Q9BV86) it is inactive: -0.049.
The result for NUMA1 (UniProt Q14980) reads inactive: 0.014.
